B1: S1D12: anti-tau binding molecule defined by its CDRs; scAb sequence SEQ ID NO: 32 (protein)
scFv: QVQLQESGPSLVKPSQTLSLTCTVSGFSLNNNAVGWVRQAPGKVPESLVGCSSDGTCYYNSALKSRLDITRDTSKNQISLSLSSVTTDDAAVYYCTRGHYSIYGYDYLGTIDYWGPGLLVTVSSEGKSSGASGESKVDDQAVLTQPSSVSGSLGQRVSITCSGSSSNVGGGNSVGWYQHLPGSGLKTIIYDTNSRPSGVPDRFSGSRSGNTATLTINSLQAEDEGDYYCVTGDSTTHDDLVGSGTRLTVLG
modifications: S1D12 amino acid sequence
B2: S1D12 mAb: S1D12 reformatted as mAb; heavy chain SEQ ID NO: 445, light chain SEQ ID NO: 446 (antibody)
heavy: QVQLQESGPSLVKPSQTLSLTCTVSGFSLNNNAVGWVRQAPGKVPESLVGCSSDGTCYYNSALKSRLDITRDTSKNQISLSLSSVTTDDAAVYYCTRGHYSIYGYDYLGTIDYWGPGLLVTVSSAKTTAPSVYPLAPVCGDTTGSSVTLGCLVKGYFPEPVTLTWNSGSLSSGVHTFPAVLQSDLYTLSSSVTVTSSTWPSQSITCNVAHPASSTKVDKKIEPRGPTIKPCPPCKCPAPNLLGGPSVFIFPPKIKDVLMISLSPIVTCVVVDVSEDDPDVQISWFVNNVEVHTAQTQTHREDYNSTLRVVSALPIQHQDWMSGKEFKCKVNNKDLPAPIERTISKPKGSVRAPQVYVLPPPEEEMTKKQVTLTCMVTDFMPEDIYVEWTNNGKTELNYKNTEPVLDSDGSYFMYSKLRVEKKNWVERNSYSCSVVHEGLHNHHTTKSFSRTPGK
light: QAVLTQPSSVSGSLGQRVSITCSGSSSNVGGGNSVGWYQHLPGSGLKTIIYDTNSRPSGVPDRFSGSRSGNTATLTINSLQAEDEGDYYCVTGDSTTHDDLVGSGTRLTVLGGQPKSSPSVTLFPPSSEELETNKATLVCTITDFYPGVVTVDWKVDGTPVTQGMETTQPSKQSNNKYMASSYLTLTARAWERHSSYSCQVTHEGHTVEKSLSRADCS
modifications: S1D12 mAB Heavy Chain; S1D12 mAB Light Chain

Tested on: tau
Test: Capture ELISA of transgenic mouse plasma
Conditions: S1D12 mAb capture; for plasma tau level, L1 5 month / plasma tau level, L1 9 month / plasma tau level, L66+/+ 5 month / plasma tau level, L66+/- 5 month / plasma tau level, WT 5 month / plasma tau level, WT 9 month: S1G2 scAb detection; for plasma tau level, L1 5 month / plasma tau level, L1 9 month: dGA calibrator; for plasma tau level, L66+/+ 5 month / plasma tau level, L66+/- 5 month / plasma tau level, WT 5 month / plasma tau level, WT 9 month: hT40 calibrator
Experimental: Plasma samples from WT, L1, L66+/− and L66+/+ of various ages (1.5-9 months) were taken as described. Mice were terminally anaesthetized using an overdose of sodium pentobarbital and blood was collected through cardiac puncture through a Plastipak syringe pre-rinsed with heparinised saline heparin (10 U/ml) (Heparin sodium salt; Sigma-Aldrich) and transferred into a plastic vial containing lithium heparin anticoagulant (Sarstedt Ltd.) Blood samples, kept on ice for no more than 30 minutes, were centrifuged to obtain plasma at 2000×g for 5 minutes at 6° C. Plasma samples were stored at −20° C.
For mouse plasma capture ELISA, 100 μL capture mAb was coated to the bottom of a black nunc 96 well ‘maxisorp’ plate at 2.5 μg/ml and incubated for 1 hour at 37° C. After washing and blocking as normal, several known standard solutions were set up in triplicate starting at 20 ng/ml of the desired protein before double diluted in the remaining wells. Mouse samples were added to wells in duplicate with a blank in between each sample group. Line1 plasma was diluted 1:10 before addition to plate to account for its high concentration while other samples were diluted 1:2 to account for potential matrix effects. These samples were left to incubate at RT for 1 hour. HRP-conjugated secondary scAb (conjugation carried out according to manufacturer's guidelines, Abcam) was added to each well and left to incubate at RT for 1 hour. The ELISA was developed using SuperSignal ELISA Femto Substrate (Thermo Scientific) and total luminescence was read on Clariostar Plus plate reader (BMG Labtech). Tau concentrations were established using a 4-parameter fit on concentration curves generated from recombinant tau protein spiked into samples at known concentration. For WT and L66 hT40 was used as a calibrator while dGA was used for L1 calibration.

| Molecule | plasma tau level, L1 5 month [ng/mL] | plasma tau level, L1 9 month [ng/mL] | plasma tau level, L66+/+ 5 month [ng/mL] | plasma tau level, L66+/- 5 month [ng/mL] | plasma tau level, WT 5 month [ng/mL] | plasma tau level, WT 9 month [ng/mL] | increase in signal intensity, Line66+/+ compared to wild type plasma (CB7 scAb detection, 1.5 months) |
| --- | --- | --- | --- | --- | --- | --- | --- |
| B1 | 12.355 | 13.661 | 1.937 | 0.567 | 1.947 | 2.177 | – |
| B2 | 12.355 | 13.661 | 1.937 | 0.567 | 1.947 | 2.177 | at least 1000 fold |
